Assay results from PubChem BioAssay AID1347076 (National Center for Advancing Translational Sciences (NCATS), 2019).
About 13,000 (3.2%) of roughly 400,000 compounds were called active. Inconclusive means that the source gave no clear call. Such entries were picked first, then a sample of the others. Calls come from the whole dose curve; as a rule, active = well fitted cell-killing curve with a large enough effect; inconclusive = small, poorly fitted or top-dose-only effect, or effect the other way; inactive = flat fitted curve, though single readings scatter. A potency beside an inconclusive call is a rough fit, not a confirmed value.

Experiment: qHTS assay for MDR1-selective chemotherapeutics: Primary screen using the drug-selected MDR subline cells KB-V1; note: nearly all actives have a fitted effect of over 60% in size
Settings: KB-V1 MDR cells viability, CellTiter-Glo, 72 h; activity change, negative = cytotoxicity: at 46.1 µM (top of the series)
Outline: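 Cells of the MDR subline KB-V1 are plated, dosed with compound at multiple concentrations, and incubated 72 h at 37 degrees C; CellTiter-Glo is then added and luminescence read after 10 min.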
% is set by controls: 0 for no effect and ±100 for the full control effect; potency is the fitted concentration of half-maximal effect.

Row | SMILES | activity change, negative = cytotoxicity | Potency
1 | CNC(=O)c1ccc(CN(C)C(=O)c2cccc(S(=O)(=O)N3CCc4ccccc4C3)c2)cc1 | inactive: 9.79% | –
2 | CC(=O)CC(C)(C)S(=O)(=O)c1ccc(Oc2ccc(S(=O)(=O)C(C)(C)CC(C)=O)cc2)cc1 | – | inconclusive: 29.1 µM [rising, single point]
3 | CC(C)NC(=O)Cn1cnc2c(cnn2-c2ccc(F)cc2)c1=O | inactive: -5.04% | –
4 | CCCc1nnc(NC(=O)Nc2ccccc2OC)s1 | – | active: 18.4 µM
5 | O=C(NCCc1ccc(Cl)cc1)C(=O)NCC(c1cccs1)S(=O)(=O)c1ccccc1 (stereo unspecified) | inactive: 7.04% | –
6 | N#Cc1cccc(NC(=O)COc2ccc(-n3ccnc3)cc2)c1 | inactive: -10.5% | –
7 | COc1ccc(-c2noc(CSc3nc4ccccc4[nH]3)n2)cc1 | – | inconclusive: 16.4 µM [cytotoxic, single point]
8 | CCCCCCC#Cc1cncc(C(=O)NNC(=O)Nc2cc(Cl)cc(Cl)c2)c1 | – | inconclusive: 29.1 µM [cytotoxic, single point]
9 | O=C(c1[nH]c(C(F)(F)F)nc1-c1ccccc1)N1CCN(c2ncccn2)CC1 | – | inconclusive: 11.6 µM [cytotoxic, partial curve]
10 | COc1cccc(CN(C(=O)c2oc3ccccc3c2C)C2CCS(=O)(=O)C2)c1 (stereo unspecified) | inactive: 1.85% | –
11 | Cc1nc(-c2ccc(F)cc2)c(CC(=O)N2CCN(S(=O)(=O)c3cccc(F)c3)CC2)s1 | – | inconclusive: 8.2 µM [cytotoxic, partial curve]
12 | Cc1cccc(Nc2nc(-c3ccncc3)cs2)c1 | – | inconclusive: 18.4 µM [cytotoxic, partial curve, poor fit]
13 | CCOC(=O)N1CCN(c2ccc([N+](=O)[O-])cc2)CC1 | – | inconclusive: 11.6 µM [cytotoxic, partial curve]
14 | Oc1ccccc1C1SC(c2ccccc2O)SC(c2ccccc2O)S1 (stereo unspecified) | inactive: -6.2% | –
15 | CCOc1c(Br)cc(/C=C2\C(=O)N(CCC#N)N=C2C)cc1OC | – | inconclusive: 29.1 µM [cytotoxic, single point]
16 | O=C(NNc1ccccc1)NC(Cc1ccccc1)C(=O)O (stereo unspecified) | inactive: 0% | –
17 | CN(C)S(=O)(=O)c1ccc(Cl)c(NC(=O)CN2CCC(Cc3ccccc3)CC2)c1 | – | inconclusive: 29.1 µM [cytotoxic, single point]
18 | O=S(=O)(c1ccccc1)N1CCN(CC(O)COc2ccc3c(c2)CCC3)CC1 (stereo unspecified) | – | inconclusive: 20.6 µM [cytotoxic, single point]
19 | CCOC(=O)C(=Cc1cc(=O)c(OC)co1)C(=O)OCC | – | inconclusive: 29.1 µM [cytotoxic, single point]
20 | CN(C(=S)NC(=O)CCCOc1ccc(Cl)cc1Cl)c1ccccc1 | – | inconclusive: 23.1 µM [cytotoxic, partial curve]
21 | CC(C)(C)C(=O)Nc1cc(S(=O)(=O)Nc2ccc(Cl)cc2)ccc1Cl | – | inconclusive: 14.6 µM [cytotoxic, partial curve]
22 | CN(C)CCC(c1ccccc1)c1ccccn1 (stereo unspecified) | – | inactive
23 | Cc1ccc(S(=O)(=O)CC(C)N2CCOCC2)c(S(=O)(=O)CC(C)N2CCOCC2)c1 (stereo unspecified) | inactive: 2.37% | –

For reference, 3 of the compounds above:
Row | SMILES | activity change, negative = cytotoxicity | Potency
10 | COc1cccc(CN(C(=O)c2oc3ccccc3c2C)C2CCS(=O)(=O)C2)c1 (stereo unspecified) | inactive: 1.85% | –
11 | Cc1nc(-c2ccc(F)cc2)c(CC(=O)N2CCN(S(=O)(=O)c3cccc(F)c3)CC2)s1 | – | inconclusive: 8.2 µM [cytotoxic, partial curve]
12 | Cc1cccc(Nc2nc(-c3ccncc3)cs2)c1 | – | inconclusive: 18.4 µM [cytotoxic, partial curve, poor fit]

More structures follow:

Row | SMILES | activity change, negative = cytotoxicity | Potency
24 | Cc1ccc(C)c(S(=O)(=O)N2CCCOC2CNC(=O)C(=O)NCCC2=CCCCC2)c1 (stereo unspecified) | – | active: 5.17 µM
25 | NS(=O)(=O)c1ccc(NC(=O)c2cc(Cl)ccc2Cl)cc1 | inactive: -6.3% | –
26 | Cc1cccnc1C(NC(=O)C1CCN(Cc2ccc(Oc3ccccc3)cc2)CC1)c1ccc(F)cc1 (stereo unspecified) | – | inconclusive: 29.1 µM [cytotoxic, single point]
27 | CC(C)COC(=O)N1CCCC(c2cc(C(=O)Nc3ccccc3Cl)no2)C1 (stereo unspecified) | inactive: 1.1% | –
28 | COc1cc(NC(=S)NN2CCOCC2)cc(OC)c1 | – | inconclusive: 20.6 µM [rising, single point]
29 | Cc1ccc2oc(=O)c3cc(C(=O)NCCc4ccc(Cl)cc4)sc3c2c1 | – | inconclusive: 13 µM [rising, partial curve]
30 | Cc1ccc(SCCCCN2CCNCC2)cc1 | inactive: -0.0259% | –
31 | CN(C)C(=O)CSc1ccc(S(=O)(=O)N2CCCC2)cn1 | inactive: -1.72% | –
32 | Cc1[nH]c2ccccc2c1/C=N/NC(=O)C1CC1(c1ccccc1)c1ccccc1 (stereo unspecified) | – | inconclusive: 16.4 µM [cytotoxic, partial curve, poor fit]
33 | CC1=CC(C)(C)N(C(=O)CNC2CCCCC2)c2cc(C)ccc21 | – | inconclusive: 10.3 µM [cytotoxic, partial curve]
34 | COc1ccc(N2CCN(C(=O)c3oc4ccccc4c3C)CC2)cc1 | – | inconclusive: 18.4 µM [cytotoxic, single point]
35 | CCOC(=O)c1[nH]c(C)c(C(=O)Nc2ccc(C)c(F)c2)c1C | – | active: 2.91 µM
36 | Cc1ccc(C)c(NC(=O)Cc2coc3cc4c(cc23)CCC4)c1 | inactive: -27.8% | –
37 | COc1ccc(C(C(=O)NC2CCCC2)n2c(CSCCOc3ccccc3)nc3ccccc32)cc1 (stereo unspecified) | – | inconclusive: 3.66 µM [cytotoxic, full curve]
38 | COc1ccc(C(=O)NC(=S)NNC(=O)c2ccccc2C)cc1 | – | inconclusive: 20.6 µM [cytotoxic, single point]
39 | CSc1nc(Cl)c(Cc2ccc(OC(C)C)cc2)c(N2CCOCC2)n1 | – | inconclusive: 29.1 µM [cytotoxic, single point]
40 | COc1ccc(C(=O)/C=C\c2ccc(NC(=O)c3cccs3)cc2)cc1 | – | inconclusive: 20.6 µM [cytotoxic, partial curve]
41 | Cc1ccc(N2CC(C)Cn3c2nc2c3c(=O)[nH]c(=O)n2C)cc1C (stereo unspecified) | – | inconclusive: 20.6 µM [cytotoxic, partial curve]
42 | Cn1nc(N2CCN(S(=O)(=O)c3ccccc3)CC2)c(=O)n(C)c1=O | inactive: 6.96% | –
43 | Cc1nc(C(=O)O)nn1-c1cc(Cl)ccc1Cl | – | inconclusive: 20.6 µM [rising, single point]
44 | C[C@H](CO)N1C[C@H](C)[C@@H](CN(C)C)Oc2c(NS(=O)(=O)c3cn(C)cn3)cccc2C1=O | inactive: -0.0381% | –
45 | COc1ccc(NC(=O)C(C(C)C)N2Cc3ccccc3C2=O)cc1 (stereo unspecified) | – | inconclusive: 16.4 µM [cytotoxic, single point]
46 | CC(CN1CCCCC1)OC(=O)C1c2ccccc2Oc2ccccc21 (stereo unspecified) | inactive: 3.44% | –
